The chains behind the UniProt entries cited, without tags or fusion partners. Where a name states a change or a piece, a line headed by the entry shows the natural chain unless it says otherwise.
UniProt Q5YFH7: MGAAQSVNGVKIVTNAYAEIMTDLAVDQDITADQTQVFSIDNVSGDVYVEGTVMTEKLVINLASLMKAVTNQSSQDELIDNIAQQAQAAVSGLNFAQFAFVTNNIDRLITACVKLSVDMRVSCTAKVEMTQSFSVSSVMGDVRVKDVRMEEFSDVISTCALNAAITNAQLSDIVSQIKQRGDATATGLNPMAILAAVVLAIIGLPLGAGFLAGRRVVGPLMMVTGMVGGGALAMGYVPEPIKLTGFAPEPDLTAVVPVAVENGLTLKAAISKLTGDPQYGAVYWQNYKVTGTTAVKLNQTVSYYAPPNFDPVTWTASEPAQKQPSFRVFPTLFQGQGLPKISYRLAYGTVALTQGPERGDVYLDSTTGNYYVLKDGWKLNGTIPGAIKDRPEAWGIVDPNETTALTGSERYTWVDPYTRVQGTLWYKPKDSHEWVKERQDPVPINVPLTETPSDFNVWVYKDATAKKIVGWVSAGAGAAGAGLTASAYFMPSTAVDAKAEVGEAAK
UniProt A0A509ZL19: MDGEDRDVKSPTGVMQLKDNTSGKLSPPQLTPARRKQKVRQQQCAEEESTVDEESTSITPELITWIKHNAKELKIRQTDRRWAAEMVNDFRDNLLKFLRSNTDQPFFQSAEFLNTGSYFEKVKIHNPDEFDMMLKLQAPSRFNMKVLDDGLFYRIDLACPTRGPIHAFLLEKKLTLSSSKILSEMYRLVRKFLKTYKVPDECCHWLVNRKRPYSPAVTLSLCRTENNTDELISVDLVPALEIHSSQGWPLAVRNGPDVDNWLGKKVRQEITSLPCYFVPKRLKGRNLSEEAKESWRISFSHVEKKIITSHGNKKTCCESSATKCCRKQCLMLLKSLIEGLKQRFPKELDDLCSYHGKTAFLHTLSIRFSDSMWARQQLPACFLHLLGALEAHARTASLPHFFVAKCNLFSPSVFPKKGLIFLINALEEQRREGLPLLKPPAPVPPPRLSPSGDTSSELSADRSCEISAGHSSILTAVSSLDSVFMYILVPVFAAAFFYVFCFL

In article PMC12817895:

How the values were obtained:
Assay in all cases: co-IP; GS cells co-transfected with two tagged plasmids (or empty vector), no SGIV infection, lysed 48 h post-transfection in IP lysis buffer; HA-tag, Flag-tag or GFP-Trap magnetic beads; immunoblot
[1] = target: HA-tagged EcTBK1 (pHA-EcTBK1) (grouper (Epinephelus coioides))
[2] = target: Flag-tagged VP088 (pCMV-3×Flag-VP088) (Singapore grouper iridovirus (SGIV)) (UniProt Q5YFH7)
[3] = target: HA-tagged VP088 (pcDNA3.1-HA-VP088) (Singapore grouper iridovirus (SGIV)) (UniProt Q5YFH7)

“GFP-tagged VP088 (pEGFP-C1-VP088) (from UniProt Q5YFH7)” was tested, and the binding [1] was “binds”.

For “HA-tagged EcTBK1 (pHA-EcTBK1) (from UniProt A0A384WXS2)”, the binding [2] was “binds”.

In the case of “Flag-tagged EccGAS (pFlag-EccGAS) (from UniProt A0A509ZL19)”, the binding [3] was “binds”.

Results are given in words; binding and its absence hold for the method and conditions named. Binding seen in cells or lysates may run through a third protein. Binding can be weak; no strength is given.
